# PubChem BioAssay AID504786 – Drosophila RNAi Screening Center – 2011
# Assay: 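Fly genes required for HIF-dependent transcription when hypoxia is mimicked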 (primary screen)
# Cell system: Drosophila S2 cells with a stable HIF luciferase reporter
# Reagents: long dsRNA against Drosophila genes, about 0.2 µg dsRNA per well of a 384-well plate
# Timing: three days of knock-down, then 20 h of DFO before reading
# Treatment: desferrioxamine (DFO) at 100 µM, an iron chelator that mimics hypoxia, for 20 h
# Detection: 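Firefly luciferase driven by the mouse ldh-a hypoxia-response element, measured after 20 h of 100 µM DFO; z-scores per plate, higher means more signal lost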
# Scale: z-score: higher = stronger loss of HIF reporter signal
# The screen tested about 21,000 reagents; below is an unselected part of those that have a named target and a result. 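Primary screen; positive scores mean lost reporter signal, so the sign may be inverted from the usual convention.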 Names joined by + are all predicted targets of the reagent. No sequences are given here.
gene,amplicon,"z-score, replicate 1","z-score, replicate 2","z-score, replicate 3","z-score, replicate 4"
Taf1,DRSC12607,1.5,1.6,,
Nf-YC,DRSC18272,1.4,3.9,,
Dek,DRSC07418,-0.2,0.3,,
eIF4E1,DRSC11342,7.3,3.7,,
Cep89,DRSC07110,-0.2,-0.3,,
CG12826,DRSC06175,0,-0.3,,
SsRbeta,DRSC11290,-0.4,-0.6,,
sxe2,DRSC15692,-0.3,-0.4,,
MsR2 + CG13802 (retired record),DRSC08336,-0.4,-0.6,,
MsR2 + CG13802 (retired record),DRSC08337,-0.3,-0.9,,
CG7196 (retired record),DRSC01000,-0.1,-0.2,,
CG7196 (retired record),DRSC03023,0.1,0.2,,
nAChRalpha7,DRSC20078,-0.4,-0.2,,
nAChRalpha7,DRSC20081,-0.3,-0.2,,
CG32040,DRSC08981,-0.3,-0.1,,
CG8312,DRSC16406,-0.2,-0.4,,
Cks30A,DRSC03292,-0.2,-0.6,,
Prx1,DRSC10741,-0.1,1.6,,
Mis12,DRSC10299,0.2,0.1,,
Gss1 + Gss2,DRSC20008,-0.4,-0.2,,
CG30496,DRSC06805,-0.3,0.1,,
CG3117,DRSC00568,-0.1,0.1,,
Tpi,DRSC16888,-0.3,-0.1,,
Def,DRSC07398,-0.2,0,,
RpL11,DRSC07537,-0.3,-0.5,,
AsnS,DRSC11468,-0.1,-0.2,,
wac,DRSC08349,0,-0.1,,
CG33500,DRSC09115,-0.1,-0.7,,
MBD-R2,DRSC14180,2.4,3.1,,
RacGAP84C,DRSC12630,-0.3,-0.1,,
EloC,DRSC07423,1.7,1.6,,
CG9016,DRSC03127,-0.4,-0.5,,
eIF4E7,DRSC17782,-0.4,0,,
eIF4E7,DRSC18623,-0.4,-0.3,,
TfIIEalpha,DRSC11303,0,-0.3,,
bib,DRSC03496,-0.1,-0.9,,
Sod2,DRSC07554,-0.3,0,,
CG14966,DRSC08425,0.9,0.4,,
Itgbn,DRSC03493,-0.3,-0.2,,
CG6470,DRSC19994,-0.1,-0.5,,
Taf5,DRSC07562,0.9,1.5,,
crm,DRSC18754,-0.3,-0.5,,
B-H2,DRSC19335,5.3,6.1,,
CG8249,DRSC07125,-0.2,0.2,,
EMC6,DRSC14386,0,-0.5,,
CG9632,DRSC16528,-0.3,-0.2,,
chrb,DRSC11335,-0.4,-0.6,-0.3,-0.1
CG15249,DRSC17978,-0.3,-0.9,,
CG17036,DRSC02564,-0.3,0,,
ssx,DRSC18492,1.3,2,,
CG13135,DRSC02232,-0.3,-0.6,,
CG31710,DRSC01089,0.1,-0.4,-0.1,-0.2
CG3909,DRSC14150,0.2,2.5,,
Trf5,DRSC00412,-0.2,0.2,,
CG14395,DRSC14852,-0.4,-0.3,,
CR13656,DRSC13705,-0.5,0.3,,
CR13656,DRSC14656,-0.2,-0.8,,
CG42296,DRSC00394,-0.2,-0.3,,
CG14641,DRSC12227,4.9,3.1,,
Psa,DRSC08152,-0.3,-0.6,,
RpS19b,DRSC15773,1.3,0.9,,
cag,DRSC07587,-0.1,-0.3,,
CG8860,DRSC07291,0,1.8,,
Tsp29Fa,DRSC03232,-0.2,-0.3,,
Inos,DRSC07655,-0.2,-0.5,,
mim,DRSC05013,1.4,2.5,,
CG7646,DRSC11232,-0.1,-0.3,,
Gmppa,DRSC07108,-0.2,-0.6,,
CG13693,DRSC00362,0,0.1,,
CG5250,DRSC15752,-0.1,0.2,,
CG32750,DRSC18848,-0.2,0.2,,
CG42813 + CG42814,DRSC15939,-0.2,-0.5,,
CG42813 + CG42814,DRSC15940,-0.1,-0.3,,
sha,DRSC06331,-0.3,-0.6,,
CG10154,DRSC09707,-0.3,-0.4,,
Elba1,DRSC00276,-0.1,0,,
CG12909,DRSC06224,-0.2,-0.1,,
betaCOP,DRSC20312,-0.5,1.1,,
PH4alphaNE1,DRSC16546,-0.3,-0.1,,
CG13367,DRSC18485,-0.3,-0.6,,
CG13367,DRSC18486,-0.3,-0.1,,
CG1631,DRSC20535,-0.1,-0.3,,
CG18628,DRSC10328,-0.1,-0.1,,
